Source: publication PMC5660164
Results are given in words; binding and its absence hold for the method and conditions named. Binding seen in cells or lysates may run through a third protein. Some entries that bind do so weakly or less than the wild type. Sequences can lack the tags named with a protein.

The chains behind the UniProt entries cited, without tags or fusion partners. Residues count along the entry.
UniProt P13569, residues 590-858: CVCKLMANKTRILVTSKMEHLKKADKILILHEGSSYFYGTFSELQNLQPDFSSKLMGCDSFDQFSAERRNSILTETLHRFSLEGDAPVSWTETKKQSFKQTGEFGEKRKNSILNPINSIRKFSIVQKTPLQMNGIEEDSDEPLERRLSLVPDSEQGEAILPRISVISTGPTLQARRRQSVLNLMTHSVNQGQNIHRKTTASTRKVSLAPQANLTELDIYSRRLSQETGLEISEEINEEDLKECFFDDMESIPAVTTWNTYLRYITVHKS

Biological target: HA-tagged CFTR R domain (UniProt P13569)
Assay: co-IP; COS7 cells co-transfected with HA-RD and Myc-STAS or Myc-STAS-p.Asp688His; lysates precipitated with anti-HA antibody (3-5 ug/mL) or normal rabbit IgG (control) and protein G-agarose; blot with anti-Myc antibody

| binding | Binder |
| --- | --- |
| binds | Myc-tagged wild-type SLC26A3 STAS domain (domain or fragment, UniProt P40879 518-713) NIYKNKKDYYDMYEPEGVKIFRCPSPIYFANIGFFRRKLIDAVGFSPLRILRKRNKALRKIRKLQKQGLLQVTPKGFICTVDTIKDSDEELDNNQIEVLDQPINTTDLPFHIDWNDDLPLNIEVPKISLHSLILDFSAVSFLDVSSVRGLKSILQEFIRIKVDVYIVGTDDDFIEKLNRYEFFDGEVKSSIFFLTI |
| binds | Myc-tagged SLC26A3 STAS domain with the c.2062 G > C (p.Asp688His) mutation (domain or fragment, UniProt P40879 518-713) NIYKNKKDYYDMYEPEGVKIFRCPSPIYFANIGFFRRKLIDAVGFSPLRILRKRNKALRKIRKLQKQGLLQVTPKGFICTVDTIKDSDEELDNNQIEVLDQPINTTDLPFHIDWNDDLPLNIEVPKISLHSLILDFSAVSFLDVSSVRGLKSILQEFIRIKVDVYIVGTDHDFIEKLNRYEFFDGEVKSSIFFLTI |
